From the supplement of paper PMC6411743
± gives the standard deviation of the averaged measurements. The list shows a part of the results.

Sequences of proteins named here, by UniProt entry; tags and fusion partners are left off. A change or cut given only in a name is not applied to a line headed by its entry.
UniProt P57737: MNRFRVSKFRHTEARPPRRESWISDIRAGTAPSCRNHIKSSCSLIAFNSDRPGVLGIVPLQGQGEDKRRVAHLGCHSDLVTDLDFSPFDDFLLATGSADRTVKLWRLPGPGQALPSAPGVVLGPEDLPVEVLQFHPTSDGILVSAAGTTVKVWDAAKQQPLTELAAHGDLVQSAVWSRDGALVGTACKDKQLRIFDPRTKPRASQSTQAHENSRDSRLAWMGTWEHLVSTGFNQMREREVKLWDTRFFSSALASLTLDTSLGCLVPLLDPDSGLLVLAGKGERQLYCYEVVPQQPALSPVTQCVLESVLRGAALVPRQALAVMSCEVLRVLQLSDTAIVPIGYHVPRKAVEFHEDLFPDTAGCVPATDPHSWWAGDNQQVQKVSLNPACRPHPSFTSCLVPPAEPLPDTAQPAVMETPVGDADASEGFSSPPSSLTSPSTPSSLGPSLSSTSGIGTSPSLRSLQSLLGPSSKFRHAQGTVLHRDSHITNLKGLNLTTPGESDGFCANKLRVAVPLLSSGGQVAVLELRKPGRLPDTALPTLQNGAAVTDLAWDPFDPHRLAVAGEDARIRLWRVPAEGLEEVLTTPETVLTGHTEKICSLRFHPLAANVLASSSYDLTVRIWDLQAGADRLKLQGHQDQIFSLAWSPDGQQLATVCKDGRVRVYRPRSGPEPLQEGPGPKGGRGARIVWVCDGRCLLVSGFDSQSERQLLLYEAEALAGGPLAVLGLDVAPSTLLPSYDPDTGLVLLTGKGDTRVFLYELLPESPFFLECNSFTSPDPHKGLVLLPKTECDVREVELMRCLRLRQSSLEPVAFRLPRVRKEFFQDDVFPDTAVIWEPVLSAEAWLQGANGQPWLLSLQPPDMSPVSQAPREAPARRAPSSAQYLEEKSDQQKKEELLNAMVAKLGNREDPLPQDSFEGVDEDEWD
UniProt Q8N6M0: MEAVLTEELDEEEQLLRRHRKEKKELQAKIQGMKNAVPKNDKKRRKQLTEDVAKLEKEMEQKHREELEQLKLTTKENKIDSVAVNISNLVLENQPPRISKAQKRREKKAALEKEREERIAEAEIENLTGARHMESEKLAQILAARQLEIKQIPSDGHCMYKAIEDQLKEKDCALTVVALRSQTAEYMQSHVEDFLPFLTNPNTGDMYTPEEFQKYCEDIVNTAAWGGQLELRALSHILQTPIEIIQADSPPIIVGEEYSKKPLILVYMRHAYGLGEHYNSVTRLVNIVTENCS
UniProt Q9NVU0: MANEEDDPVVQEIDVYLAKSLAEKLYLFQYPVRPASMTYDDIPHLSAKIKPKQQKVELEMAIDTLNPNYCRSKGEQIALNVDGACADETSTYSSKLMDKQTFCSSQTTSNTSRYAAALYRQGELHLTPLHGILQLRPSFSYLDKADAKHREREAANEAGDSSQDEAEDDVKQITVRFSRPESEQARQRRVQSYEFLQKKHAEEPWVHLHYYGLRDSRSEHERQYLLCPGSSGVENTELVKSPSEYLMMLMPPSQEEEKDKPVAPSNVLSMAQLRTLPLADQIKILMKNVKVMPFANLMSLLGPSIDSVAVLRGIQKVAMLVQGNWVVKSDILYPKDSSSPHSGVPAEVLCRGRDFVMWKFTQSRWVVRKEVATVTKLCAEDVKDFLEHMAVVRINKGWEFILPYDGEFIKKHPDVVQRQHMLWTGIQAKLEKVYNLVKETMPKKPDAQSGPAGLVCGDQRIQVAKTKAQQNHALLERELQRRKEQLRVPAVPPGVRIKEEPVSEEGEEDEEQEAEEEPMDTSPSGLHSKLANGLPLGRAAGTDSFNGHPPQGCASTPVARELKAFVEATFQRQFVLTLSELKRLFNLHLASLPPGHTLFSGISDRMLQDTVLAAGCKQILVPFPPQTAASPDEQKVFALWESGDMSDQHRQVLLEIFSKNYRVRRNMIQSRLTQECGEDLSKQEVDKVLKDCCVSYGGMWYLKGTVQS
UniProt Q96I15: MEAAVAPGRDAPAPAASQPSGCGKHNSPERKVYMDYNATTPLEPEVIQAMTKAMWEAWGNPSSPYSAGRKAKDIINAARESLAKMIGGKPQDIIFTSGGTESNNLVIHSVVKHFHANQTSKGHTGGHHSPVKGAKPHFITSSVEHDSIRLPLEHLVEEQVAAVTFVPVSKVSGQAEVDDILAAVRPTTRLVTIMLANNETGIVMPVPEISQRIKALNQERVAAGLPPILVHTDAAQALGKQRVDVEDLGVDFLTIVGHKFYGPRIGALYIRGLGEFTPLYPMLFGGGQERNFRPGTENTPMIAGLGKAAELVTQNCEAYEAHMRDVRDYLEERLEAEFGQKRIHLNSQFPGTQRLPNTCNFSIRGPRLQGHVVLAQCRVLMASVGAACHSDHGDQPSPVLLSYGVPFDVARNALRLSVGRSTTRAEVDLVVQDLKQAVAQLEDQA
UniProt Q99798: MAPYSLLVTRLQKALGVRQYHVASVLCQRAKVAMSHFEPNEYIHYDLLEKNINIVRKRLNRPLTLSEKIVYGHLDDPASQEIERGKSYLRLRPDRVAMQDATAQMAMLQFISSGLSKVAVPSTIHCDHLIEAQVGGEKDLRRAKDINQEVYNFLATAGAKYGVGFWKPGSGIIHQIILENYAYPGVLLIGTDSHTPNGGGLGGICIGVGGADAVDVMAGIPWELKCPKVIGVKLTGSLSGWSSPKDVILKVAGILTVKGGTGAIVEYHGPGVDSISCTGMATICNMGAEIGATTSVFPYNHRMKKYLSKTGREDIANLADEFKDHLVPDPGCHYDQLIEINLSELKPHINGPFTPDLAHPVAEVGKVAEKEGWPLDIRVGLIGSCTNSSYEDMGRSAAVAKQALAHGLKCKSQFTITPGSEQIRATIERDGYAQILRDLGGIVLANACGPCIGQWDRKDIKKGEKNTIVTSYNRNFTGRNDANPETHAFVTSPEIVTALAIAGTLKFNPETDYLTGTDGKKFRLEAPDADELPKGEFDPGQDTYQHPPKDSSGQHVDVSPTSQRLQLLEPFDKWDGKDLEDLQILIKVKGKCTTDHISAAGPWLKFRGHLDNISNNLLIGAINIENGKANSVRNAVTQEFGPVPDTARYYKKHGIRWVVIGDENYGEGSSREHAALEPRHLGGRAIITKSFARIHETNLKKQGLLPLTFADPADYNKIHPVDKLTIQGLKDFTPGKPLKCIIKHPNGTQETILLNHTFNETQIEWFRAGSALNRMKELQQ
UniProt Q15283: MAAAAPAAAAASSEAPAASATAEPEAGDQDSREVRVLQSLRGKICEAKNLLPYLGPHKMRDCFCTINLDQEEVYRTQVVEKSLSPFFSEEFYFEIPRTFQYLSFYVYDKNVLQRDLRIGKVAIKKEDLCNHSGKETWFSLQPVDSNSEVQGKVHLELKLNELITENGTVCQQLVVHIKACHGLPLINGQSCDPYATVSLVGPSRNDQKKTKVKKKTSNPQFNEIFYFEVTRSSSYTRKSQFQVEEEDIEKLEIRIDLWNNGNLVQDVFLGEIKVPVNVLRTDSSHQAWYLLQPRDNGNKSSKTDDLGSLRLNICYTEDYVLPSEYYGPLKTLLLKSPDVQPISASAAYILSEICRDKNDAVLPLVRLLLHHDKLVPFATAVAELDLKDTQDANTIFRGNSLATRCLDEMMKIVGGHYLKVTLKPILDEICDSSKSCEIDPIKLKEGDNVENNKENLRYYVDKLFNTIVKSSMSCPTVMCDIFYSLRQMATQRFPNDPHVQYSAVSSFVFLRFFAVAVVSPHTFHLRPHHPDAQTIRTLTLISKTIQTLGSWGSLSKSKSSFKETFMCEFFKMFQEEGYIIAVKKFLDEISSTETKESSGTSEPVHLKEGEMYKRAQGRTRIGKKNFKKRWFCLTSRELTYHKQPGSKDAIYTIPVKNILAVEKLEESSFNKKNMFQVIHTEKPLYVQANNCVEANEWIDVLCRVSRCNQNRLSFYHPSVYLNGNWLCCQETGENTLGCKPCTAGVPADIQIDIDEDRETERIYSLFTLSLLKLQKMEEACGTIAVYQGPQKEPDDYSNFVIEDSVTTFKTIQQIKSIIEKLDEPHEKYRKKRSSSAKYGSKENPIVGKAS
UniProt P30566: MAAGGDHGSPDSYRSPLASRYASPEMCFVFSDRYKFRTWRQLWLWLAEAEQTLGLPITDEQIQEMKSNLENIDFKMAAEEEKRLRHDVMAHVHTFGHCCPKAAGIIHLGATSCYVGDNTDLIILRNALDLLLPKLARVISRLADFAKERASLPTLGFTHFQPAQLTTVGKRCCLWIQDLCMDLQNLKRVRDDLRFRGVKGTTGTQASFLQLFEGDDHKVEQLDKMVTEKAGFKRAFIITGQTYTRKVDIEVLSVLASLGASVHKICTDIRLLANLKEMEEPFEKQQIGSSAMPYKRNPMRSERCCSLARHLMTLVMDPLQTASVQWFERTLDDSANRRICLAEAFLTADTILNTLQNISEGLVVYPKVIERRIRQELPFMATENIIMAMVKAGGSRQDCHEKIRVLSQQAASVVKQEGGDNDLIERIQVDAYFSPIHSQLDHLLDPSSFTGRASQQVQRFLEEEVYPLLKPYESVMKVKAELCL
UniProt P53365: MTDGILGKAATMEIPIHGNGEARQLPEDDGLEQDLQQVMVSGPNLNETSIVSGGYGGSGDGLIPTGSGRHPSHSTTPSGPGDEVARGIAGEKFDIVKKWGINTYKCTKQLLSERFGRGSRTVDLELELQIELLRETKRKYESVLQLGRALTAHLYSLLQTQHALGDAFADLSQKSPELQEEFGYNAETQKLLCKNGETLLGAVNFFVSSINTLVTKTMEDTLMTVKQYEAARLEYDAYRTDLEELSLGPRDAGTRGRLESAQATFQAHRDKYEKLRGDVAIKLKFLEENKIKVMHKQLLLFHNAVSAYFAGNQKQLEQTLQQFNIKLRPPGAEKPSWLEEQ
UniProt Q14160: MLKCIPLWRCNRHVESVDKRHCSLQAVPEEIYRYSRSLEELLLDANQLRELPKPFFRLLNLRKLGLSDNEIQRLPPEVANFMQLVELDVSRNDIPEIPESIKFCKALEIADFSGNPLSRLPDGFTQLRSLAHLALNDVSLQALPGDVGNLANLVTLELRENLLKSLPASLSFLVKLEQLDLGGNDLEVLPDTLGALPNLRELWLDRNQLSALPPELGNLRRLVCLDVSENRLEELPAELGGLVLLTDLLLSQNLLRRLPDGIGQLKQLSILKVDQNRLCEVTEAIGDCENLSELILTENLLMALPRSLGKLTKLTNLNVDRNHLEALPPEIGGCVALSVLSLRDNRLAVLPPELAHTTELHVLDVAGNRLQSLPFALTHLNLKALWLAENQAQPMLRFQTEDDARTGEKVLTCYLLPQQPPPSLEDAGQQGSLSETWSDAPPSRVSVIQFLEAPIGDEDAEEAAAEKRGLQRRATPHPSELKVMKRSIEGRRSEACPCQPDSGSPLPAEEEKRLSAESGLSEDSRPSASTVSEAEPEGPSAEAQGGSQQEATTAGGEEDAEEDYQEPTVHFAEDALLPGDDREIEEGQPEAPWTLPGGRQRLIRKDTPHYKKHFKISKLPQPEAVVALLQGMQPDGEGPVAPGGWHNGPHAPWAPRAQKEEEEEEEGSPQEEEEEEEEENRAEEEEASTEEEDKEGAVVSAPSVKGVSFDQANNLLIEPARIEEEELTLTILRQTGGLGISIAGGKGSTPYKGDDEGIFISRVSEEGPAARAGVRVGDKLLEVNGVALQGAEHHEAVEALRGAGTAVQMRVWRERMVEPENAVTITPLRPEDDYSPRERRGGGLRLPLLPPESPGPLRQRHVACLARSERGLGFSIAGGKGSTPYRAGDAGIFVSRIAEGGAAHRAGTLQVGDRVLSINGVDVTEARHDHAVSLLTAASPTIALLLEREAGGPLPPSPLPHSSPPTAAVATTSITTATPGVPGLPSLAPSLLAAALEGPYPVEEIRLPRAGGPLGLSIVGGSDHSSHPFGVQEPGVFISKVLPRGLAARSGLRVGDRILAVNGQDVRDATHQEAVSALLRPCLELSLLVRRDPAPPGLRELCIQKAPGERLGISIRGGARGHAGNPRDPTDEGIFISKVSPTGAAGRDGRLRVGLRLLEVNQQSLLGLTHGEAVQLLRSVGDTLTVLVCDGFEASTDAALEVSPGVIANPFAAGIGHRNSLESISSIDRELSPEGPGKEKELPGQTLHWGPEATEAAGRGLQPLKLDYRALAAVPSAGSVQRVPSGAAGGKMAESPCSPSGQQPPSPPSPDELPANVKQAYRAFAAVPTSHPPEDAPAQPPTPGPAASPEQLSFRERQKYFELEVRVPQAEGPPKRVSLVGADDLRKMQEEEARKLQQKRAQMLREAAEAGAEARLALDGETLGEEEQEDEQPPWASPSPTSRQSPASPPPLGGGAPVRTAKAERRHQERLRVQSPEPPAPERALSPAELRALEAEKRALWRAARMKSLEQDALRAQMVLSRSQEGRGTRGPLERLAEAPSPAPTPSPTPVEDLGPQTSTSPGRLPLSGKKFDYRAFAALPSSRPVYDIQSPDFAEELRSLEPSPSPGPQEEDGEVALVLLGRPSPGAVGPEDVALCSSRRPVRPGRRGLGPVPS

Compound: Nc1nc2c(ncn2[C@@H]2O[C@H](COP(=O)(O)OP(=O)(O)OP(=O)(O)O)[C@@H](O)[C@H]2O)c(=O)[nH]1 [guanosine triphosphate]
Assay: NP40-soluble protein abundance relative to vehicle (solubility fold change) (ratio); higher = more soluble protein in presence of GTP
How it was run: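 Data come from three independent experiments in which Dounce-homogenised Jurkat crude lysate was treated at eight concentrations from 0.1 to 10 mM. Treatment ran 10 min at room temperature and then 3 min at 37 °C, after which 0.8% NP40 and benzonase were added for 60 min at 4 °C before ultracentrifugation. The supernatant underwent TMT labelling and LC-MS/MS, and vsn-normalised intensities were expressed as fold change against the detergent-processed vehicle in each replicate.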

Target	NP40-soluble protein abundance (concentration: 0.1mM)	NP40-soluble protein abundance (concentration: 0.5mM)	NP40-soluble protein abundance (concentration: 1mM)	NP40-soluble protein abundance (concentration: 2mM)	NP40-soluble protein abundance (concentration: 4mM)	NP40-soluble protein abundance (concentration: 6mM)	NP40-soluble protein abundance (concentration: 8mM)	NP40-soluble protein abundance (concentration: 10mM)
A0A0A6YYL4|P57737-3|P57737 and related entries (UniProt P57737)	1.01 ± 0.015	1.02 ± 0.038	0.952 ± 0.058	0.949 ± 0.03	0.95 ± 0.027	0.937 ± 0.048	0.927 ± 0.042	0.906 ± 0.058
A0A087X0W9|Q8N6M0 (UniProt Q8N6M0)	0.972 ± 0.062	0.937 ± 0.066	0.927 ± 0.072	0.885 ± 0.084	0.849 ± 0.042	0.901 ± 0.074	0.872 ± 0.055	0.868 ± 0.069
A0A096LPH6|Q14966 and related entries (UniProt Q14966)	0.943 ± 0.025	0.997 ± 0.062	0.993 ± 0.055	0.998 ± 0.094	1.02 ± 0.062	1.06 ± 0.083	1.08 ± 0.07	1.1 ± 0.091
A0A0D9SEU5|Q6VN20 and related entries (UniProt Q6VN20)	1.09 ± 0.062	1.11 ± 0.077	1.15 ± 0.039	1.13 ± 0.063	1.18 ± 0.095	1.15 ± 0.063	1.13 ± 0.11	1.18 ± 0.12
A0A0C4DH01|Q9NVU0 and related entries (UniProt Q9NVU0)	1.02 ± 0.087	1.05 ± 0.059	1.09 ± 0.085	1.15 ± 0.095	1.13 ± 0.079	1.13 ± 0.11	1.17 ± 0.11	1.12 ± 0.17
A0A0A0MQU4|Q96I15 (UniProt Q96I15)	1.03 ± 0.12	1.04 ± 0.1	0.984 ± 0.084	0.971 ± 0.091	0.99 ± 0.1	0.944 ± 0.076	0.932 ± 0.079	0.921 ± 0.074
A0A087WXN4|Q96CB8 (UniProt Q96CB8)	0.965 ± 0.071	0.905 ± 0.033	0.921 ± 0.036	0.956 ± 0.068	1 ± 0.093	1.03 ± 0.058	1.12 ± 0.11	1.13 ± 0.13
A0A0U1RRB6|Q9Y2D4 (UniProt Q9Y2D4)	1.02 ± 0.058	1.01 ± 0.054	0.991 ± 0.048	0.969 ± 0.061	0.968 ± 0.039	0.985 ± 0.036	0.953 ± 0.031	0.911 ± 0.082
A0A087WZV0|H0Y9S9 and related entries (UniProt O43314)	1 ± 0.011	1.04 ± 0.023	0.959 ± 0.021	0.937 ± 0.018	0.931 ± 0.0053	0.93 ± 0.024	0.928 ± 0.047	0.935 ± 0.035
A0A0C4DGH6|A0JNW5 (UniProt A0JNW5)	1.02 ± 0.076	0.988 ± 0.094	1.08 ± 0.17	1.02 ± 0.12	0.929 ± 0.11	0.888 ± 0.12	0.946 ± 0.1	0.924 ± 0.18
A2RUF3 and related entries (UniProt O75044)	1.05 ± 0.029	1.07 ± 0.017	1.04 ± 0.047	1.03 ± 0.027	0.992 ± 0.081	1.02 ± 0.045	1 ± 0.08	0.998 ± 0.036
A2A274 and related entries (UniProt Q99798)	0.988 ± 0.037	0.995 ± 0.037	0.948 ± 0.053	0.932 ± 0.066	0.916 ± 0.063	0.906 ± 0.061	0.903 ± 0.061	0.869 ± 0.082
A0A087WXN9|Q765P7 (UniProt Q765P7)	1.14 ± 0.17	1.07 ± 0.17	1.09 ± 0.2	1.04 ± 0.16	1.09 ± 0.052	0.989 ± 0.22	1.03 ± 0.11	1.1 ± 0.036
A0A0A0MSQ0|H7C4N2 and related entries (UniProt P13797)	1.04 ± 0.065	1.02 ± 0.04	0.953 ± 0.054	0.949 ± 0.056	0.874 ± 0.076	0.941 ± 0.095	0.943 ± 0.09	0.911 ± 0.09
A0A0G2JNW7|Q9Y666 (UniProt Q9Y666)	1.04 ± 0.036	1.04 ± 0.032	1 ± 0.026	1.02 ± 0.032	1.04 ± 0.024	1.02 ± 0.036	1.06 ± 0.026	1.03 ± 0.036
A0A0C4DGG9|F5GWX5 and related entries (UniProt Q14839)	1.01 ± 0.034	1.06 ± 0.06	1.08 ± 0.074	1.12 ± 0.1	1.14 ± 0.11	1.13 ± 0.11	1.18 ± 0.15	1.15 ± 0.14
A0A0A0MSJ9|Q15283 and related entries (UniProt Q15283)	1.05 ± 0.057	1.07 ± 0.065	0.985 ± 0.018	0.998 ± 0.04	1.01 ± 0.054	0.967 ± 0.048	0.94 ± 0.067	0.927 ± 0.13
A0A096LPA2|P30566 (UniProt P30566)	1.02 ± 0.024	1.01 ± 0.066	0.896 ± 0.033	0.92 ± 0.095	0.919 ± 0.045	0.883 ± 0.06	0.8542 ± 0.0037	0.862 ± 0.046
A0A0D9SG71|P49459 (UniProt P49459)	0.998 ± 0.058	1 ± 0.08	1.02 ± 0.067	1.01 ± 0.054	0.985 ± 0.062	0.936 ± 0.045	1 ± 0.07	0.956 ± 0.041
A0A087X1E4|P53365 and related entries (UniProt P53365)	0.956 ± 0.05	0.853 ± 0.057	0.972 ± 0.052	0.963 ± 0.08	0.913 ± 0.088	0.906 ± 0.1	0.861 ± 0.14	0.889 ± 0.068
A0A087WYU1|A0A087WZW2|Q9Y5X1 (UniProt Q9Y5X1)	1.02 ± 0.066	1.03 ± 0.038	1.01 ± 0.064	1.06 ± 0.072	0.996 ± 0.058	1.03 ± 0.034	1.08 ± 0.088	1.07 ± 0.066
A0A0G2JNZ2|A0A0G2JPP5|Q14160 and related entries (UniProt Q14160)	1.005 ± 0.01	0.998 ± 0.038	1.01 ± 0.045	0.98 ± 0.064	0.964 ± 0.023	0.957 ± 0.031	0.988 ± 0.022	0.976 ± 0.028

Reprinted at random: 2 records from the list
Target	NP40-soluble protein abundance (concentration: 0.1mM)	NP40-soluble protein abundance (concentration: 0.5mM)	NP40-soluble protein abundance (concentration: 1mM)	NP40-soluble protein abundance (concentration: 2mM)	NP40-soluble protein abundance (concentration: 4mM)	NP40-soluble protein abundance (concentration: 6mM)	NP40-soluble protein abundance (concentration: 8mM)	NP40-soluble protein abundance (concentration: 10mM)
A0A0A0MQU4|Q96I15 (UniProt Q96I15)	1.03 ± 0.12	1.04 ± 0.1	0.984 ± 0.084	0.971 ± 0.091	0.99 ± 0.1	0.944 ± 0.076	0.932 ± 0.079	0.921 ± 0.074
A0A0G2JNZ2|A0A0G2JPP5|Q14160 and related entries (UniProt Q14160)	1.005 ± 0.01	0.998 ± 0.038	1.01 ± 0.045	0.98 ± 0.064	0.964 ± 0.023	0.957 ± 0.031	0.988 ± 0.022	0.976 ± 0.028
